# Results: PubChem BioAssay AID2685 (National Center for Advancing Translational Sciences (NCATS), 2010)
# Some of the results follow. The main result of the screen is listed elsewhere. These columns were measured beside it and carry no call. Most of these compounds were active or inconclusive in the main read-out, so they are no random draw. Words in brackets tell the shape of the fitted curve; partial curves, single points and poor fits give uncertain potencies. Where a SMILES comes first, the peptide text is derived from it. [ ]: non-standard residue; d: D form. Inp = O=C(O)C1CCNCC1
# Assay: qHTS Assay for Lipid Storage Modulators in Drosophila S3 Cells;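 as to cell number change: cells counted by Cell Tracker Red CMTPX staining in the red channel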
# Details: BODIPY lipid droplet fluorescence, 18-24 h; for cell number change: measured here: cell count max response, cells fed with added oleic acid
# In short: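 Drosophila S3 cells loaded with oleic acid (400 uM, as added) and compounds at several concentrations; lipid droplets imaged by 488-nm laser-scanning cytometry, 500–530 nm intensity and object ratio to cell channel. Percent activity normalized to 20 uM Triacsin C.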
# [1] = measured here: lipid fluorescence (Fed channel) AC50, cells fed with added oleic acid
# [2] = measured here: cell number channel AC50, cells fed with added oleic acid
compound,measurement,setting,value
CC(OC(=O)CNC(=O)c1sc2ccccc2c1Cl)C(=O)NC1(C#N)CCCCC1 (stereo not given),cell number change,,-6.33%
same,AC50,[1],"20.6 µM [falling, single point]"
Cc1ccc(NC(=O)C2CCN(S(=O)(=O)c3cccc4nonc34)CC2)cc1,cell number change,,337%
same,AC50,[2],"29.1 µM [rising, single point]"
Cc1ccc(S(=O)(=O)N2CC(C(=O)O)=CC[C@H]2c2ccc3c(c2)OCO3)cc1,cell number change,,-16.7%
same,AC50,[1],"0.411 µM [rising, partial curve, poor fit]"
C/C(=N\Nc1cc(C)nc(NCc2ccccc2)n1)c1ccc([N+](=O)[O-])cc1,cell number change,,36.4%
same,AC50,[2],"36.6 µM [rising, single point]"
COc1cccc(CNC(=O)CN2C(=O)NC(Cc3ccccc3)(c3ccccc3)C2=O)c1 (stereo not given),cell number change,,-59.1%
same,AC50,[2],"13 µM [falling, partial curve]"
same,AC50,[1],"9.2 µM [falling, partial curve]"
O=C(OCC(=O)N1CCCC1)c1c[nH]c2ccccc12,cell number change,,-26.5%
same,AC50,[1],"32.6 µM [falling, single point]"
O=C(CSc1nnc2ccc3ccccc3n12)c1ccc(F)cc1,cell number change,,13.6%
same,AC50,[1],"32.6 µM [falling, single point]"
CC(=O)Nc1ccc(S(=O)(=O)N2CCN=C2SCc2cccc(C)c2)cc1,cell number change,,-32.2%
same,AC50,[2],"32.6 µM [falling, single point]"
COc1ccc(Nc2nnc(SCC3CCCO3)s2)cc1 (stereo not given),AC50,[1],"6.51 µM [falling, single point]"
Cn1c(CN2CCOCC2)nnc1SCC(=O)Nc1ccc([N+](=O)[O-])cc1O,cell number change,,-5.41%
same,AC50,[1],"29.1 µM [rising, single point]"
CCOc1ccc(Br)cc1S(=O)(=O)Nc1ccc(NC(=O)c2ccccc2C)cc1,cell number change,,30.1%
same,AC50,[2],"6.51 µM [falling, partial curve, poor fit]"
same,AC50,[1],"0.92 µM [rising, partial curve, poor fit]"
O=C(N/N=C/c1ccc(OCc2ccc(F)cc2)cc1)c1ccccc1,cell number change,,-40.3%
same,AC50,[1],"29.1 µM [falling, single point]"
CN(C)CCCN=Cc1c(O)n(Cc2ccccc2)c(=O)c2ccccc12,cell number change,,52.5%
same,AC50,[2],"14.6 µM [rising, partial curve, poor fit]"
same,AC50,[1],"1.64 µM [rising, partial curve]"
CCC(=O)N1CCc2cc(Br)cc(S(=O)(=O)CC(=O)OC)c21,cell number change,,10.7%
COc1ccc2c(C)nc(N/C(N)=N/S(=O)(=O)c3ccc(C)cc3)nc2c1,cell number change,,-67.8%
same,AC50,[2],"29.1 µM [falling, single point]"
same,AC50,[1],"29.1 µM [falling, partial curve]"
COC(=O)c1ccccc1NC(=O)CSc1nncn1-c1ccccn1,cell number change,,15.2%
same,AC50,[1],"2.91 µM [falling, single point]"
O=C(C(=O)N1CCN(c2ccc([N+](=O)[O-])cc2)CC1)c1cn(CC(=O)N2CCOCC2)c2ccccc12,cell number change,,33.1%
same,AC50,[2],"32.6 µM [rising, single point]"
same,AC50,[1],"6.51 µM [rising, partial curve, poor fit]"
COC(=O)c1c(C)[nH]c(C)c1-c1ccccc1Cl,cell number change,,-22.3%
CC(COC(=O)c1ccccc1)(COC(=O)c1ccccc1)/[N+]([O-])=C/c1ccccc1,cell number change,,-31.2%
same,AC50,[2],"0.116 µM [falling, full curve]"
same,AC50,[1],"18.4 µM [falling, partial curve, poor fit]"
Cc1ccccc1C(=O)Nc1ccc2c(c1)CCCN2C(=O)c1cccs1,cell number change,,1.42%
same,AC50,[1],"29.1 µM [falling, single point]"
OCC[C@H]1C[C@@H](O)[C@H](O)[C@]2(CCc3ccccc3O2)O1,cell number change,,-24.6%
same,AC50,[1],"1.46 µM [rising, partial curve]"
COc1cccc(C(=O)NCCSc2ccc(Br)cc2)c1,AC50,[1],"0.00461 µM [falling, full curve, poor fit]"
Cc1ccc(S(=O)(=O)NCC(=O)NCC(=O)NC(C)c2ccccc2Br)cc1C (stereo not given),cell number change,,11.5%
same,AC50,[1],"29.1 µM [rising, single point]"
CC(=O)N1c2ccc(S(=O)(=O)N3CCC(C(=O)Nc4cccc(C)n4)CC3)cc2CC1C (stereo not given),cell number change,,10.1%
same,AC50,[1],"0.82 µM [falling, full curve, poor fit]"
O=C(O)COc1ccc(Nc2ccccc2)cc1,cell number change,,13.3%
O=C(O)c1cc(-c2ccc(Cl)cc2)n[nH]1,AC50,[2],"2.31 µM [rising, partial curve, poor fit]"
COc1ccc(NC(=O)N2CCCC2C(=O)Nc2cccc(C)c2C)cc1 (stereo not given),cell number change,,17.5%
same,AC50,[1],"6.51 µM [falling, single point]"
CC1CCc2c(C(=O)OCC(=O)Nc3cccc(S(=O)(=O)N4CCCCCC4)c3)csc2C1 (stereo not given),cell number change,,-3.01%
same,AC50,[2],"6.51 µM [falling, single point]"
same,AC50,[1],"29.1 µM [rising, single point]"
O=C(CN1C(=O)COc2ccc(S(=O)(=O)N3CCCC3)cc21)NCc1ccccn1,cell number change,,-16.9%
same,AC50,[1],"3.26 µM [falling, full curve]"
Cc1cc(=O)oc2cc(OCC(=O)c3ccc4c(c3)NC(=O)CO4)ccc12,cell number change,,-9.6%
COc1ccccc1CN1CCCCC1C(=O)O (stereo not given),AC50,[1],"16.4 µM [falling, partial curve]"
CCCn1c(SCC(=O)N2CCN(c3ccccc3)CC2)nc2ccccc2c1=O,cell number change,,222%
same,AC50,[2],"5.17 µM [rising, partial curve]"
Cc1ccc(Oc2ccc(Cl)cc2NC(=O)c2cnccn2)cc1,cell number change,,75.5%
same,AC50,[2],"29.1 µM [rising, single point]"
O=C(Nc1nc(-c2ccccc2)cs1)c1cccc(S(=O)(=O)N2CCN(Cc3ccccc3)CC2)c1,cell number change,,264%
same,AC50,[2],"0.00517 µM [rising, full curve, poor fit]"
same,AC50,[1],"0.58 µM [rising, single point]"
Cc1ccc(CN2C(=O)C(C)Nc3ncnc(N4CCN(c5ccccn5)CC4)c32)cc1 (stereo not given),cell number change,,19.7%
same,AC50,[1],"32.6 µM [rising, single point]"
CCCN(CC(=O)Nc1ccccc1C)C(=O)c1ccc(-c2ccc([N+](=O)[O-])cc2)o1,AC50,[1],"32.6 µM [falling, single point]"
O=C(NC(=S)N1CCCCC1c1cccnc1)c1ccc(F)cc1 (stereo not given),cell number change,,19.3%
same,AC50,[1],"0.58 µM [rising, single point]"
Cc1ccc(C)c(N(C)C(=O)c2ccc3c(=O)n4c(nc3c2)CCCCC4)c1,AC50,[2],"0.517 µM [falling, full curve, poor fit]"
same,AC50,[1],"3.66 µM [falling, partial curve]"
CCC(C)c1ccc(NC(=O)C2=CC=CN3CCS(=O)(=O)N=C23)cc1 (stereo not given),cell number change,,-3.24%
same,AC50,[1],"6.51 µM [rising, single point]"
CCOC(=O)Nc1ccc(S(=O)(=O)NCc2ccccc2)cc1,cell number change,,52.6%
same,AC50,[2],"32.6 µM [rising, single point]"
Cc1cccc(OCCOC(=O)c2c(-c3ccccc3)noc2C)c1,cell number change,,-5.26%
same,AC50,[1],"35.5 µM [falling, single point]"
Cc1ccc(S(=O)(=O)NCC(=O)NC2CCCC2)cc1,cell number change,,54.3%
same,AC50,[2],"29.1 µM [rising, single point]"
same,AC50,[1],"6.51 µM [falling, single point]"
CCCCN1CC(C(=O)NCc2ccc(C)cc2)CC1=O (stereo not given),cell number change,,8.27%
same,AC50,[1],"0.146 µM [falling, full curve, poor fit]"
N[C@@H](Cc1ccccc1)C(=O)N1CCC(C(=O)NCC(=O)NCC(=O)O)CC1 (H-F[Inp]GG-OH),cell number change,,2.7%
same,AC50,[1],"0.58 µM [rising, single point]"
CC1CCN(c2c([N+](=O)[O-])nn(-c3ccc4c(c3)OCCO4)[n+]2[O-])CC1,cell number change,,58.7%
same,AC50,[2],"9.2 µM [rising, partial curve]"
CC(C)(C)OC(=O)N1CCN(c2ccc(NC(=O)c3ccco3)cc2)CC1,AC50,[1],"3.66 µM [falling, partial curve]"
O=C(c1cccc(S(=O)(=O)N2CCCC2)c1)N1CCN(c2ccccc2)CC1,AC50,[1],"0.82 µM [falling, full curve, poor fit]"
CCCCCCCCCCn1ccc(=N)cc1,cell number change,,-66.2%
same,AC50,[2],"1.46 µM [falling, partial curve]"
Cc1cc(O)ccc1NC(=O)c1ccccc1,cell number change,,10.9%
Cc1cc(C)nc(N2CCN(C(=O)c3ccc(S(=O)(=O)N4CCCCCC4)cc3)CC2)n1,AC50,[2],"0.58 µM [rising, single point]"
CC(C)C(OC(=O)c1ccccc1)c1nccc2ccccc12 (stereo not given),cell number change,,38.6%
same,AC50,[2],"9.2 µM [rising, partial curve]"
same,AC50,[1],"14.6 µM [rising, partial curve, poor fit]"
CCOc1ccc(OCCOc2ccc(/C=C/C(=O)O)cc2OCC)cc1,cell number change,,12.1%
same,AC50,[1],"0.116 µM [rising, single point]"
CCN(CC(=O)NCc1cccs1)S(=O)(=O)c1cc(NC(C)=O)ccc1OC,cell number change,,17.7%
same,AC50,[1],"32.6 µM [rising, partial curve, poor fit]"
CCC1CCCCN1CCCNC(=O)CN1C(=O)COc2ccc(S(=O)(=O)N3CCOCC3)cc21 (stereo not given),cell number change,,-30.4%
same,AC50,[2],"32.6 µM [falling, single point]"
CCOC(=O)c1cc2c(=O)n3ccccc3nc2n(CC2CCCO2)c1=NC(C)=O (stereo not given),cell number change,,16%
same,AC50,[2],"0.92 µM [rising, partial curve]"
same,AC50,[1],"1.46 µM [rising, partial curve]"
O=S(=O)(NCC(c1cccnc1)N1CCN(c2ccccc2)CC1)c1cc(F)ccc1F (stereo not given),AC50,[2],"0.461 µM [rising, full curve]"
same,AC50,[1],"0.366 µM [rising, full curve]"

# Quoted at random: 3 records from the list.
compound,measurement,setting,value
CCC(C)c1ccc(NC(=O)C2=CC=CN3CCS(=O)(=O)N=C23)cc1 (stereo not given),cell number change,,-3.24%
CCOc1ccc(OCCOc2ccc(/C=C/C(=O)O)cc2OCC)cc1,AC50,[1],"0.116 µM [rising, single point]"
O=C(C(=O)N1CCN(c2ccc([N+](=O)[O-])cc2)CC1)c1cn(CC(=O)N2CCOCC2)c2ccccc12,AC50,[1],"6.51 µM [rising, partial curve, poor fit]"
